Experimental findings from paper doi:10.1101/2024.03.29.587195 (bioRxiv, 2024) are described below.

The chains behind the UniProt entries cited, without tags or fusion partners.
UniProt P9WNU7, whole entry: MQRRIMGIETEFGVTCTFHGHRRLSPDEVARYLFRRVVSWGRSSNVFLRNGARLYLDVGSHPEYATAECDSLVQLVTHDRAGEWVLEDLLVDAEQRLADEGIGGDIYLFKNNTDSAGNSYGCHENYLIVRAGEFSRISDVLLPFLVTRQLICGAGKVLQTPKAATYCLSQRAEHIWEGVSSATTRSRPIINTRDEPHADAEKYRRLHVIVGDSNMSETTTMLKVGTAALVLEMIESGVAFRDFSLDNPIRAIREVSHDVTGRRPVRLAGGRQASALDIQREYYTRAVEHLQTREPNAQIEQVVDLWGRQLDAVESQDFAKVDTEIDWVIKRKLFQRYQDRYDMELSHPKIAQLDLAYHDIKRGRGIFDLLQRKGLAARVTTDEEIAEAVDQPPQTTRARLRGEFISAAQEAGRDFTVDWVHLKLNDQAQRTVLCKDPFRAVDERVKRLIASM

Results are given in words; binding and its absence hold for the method and conditions named. In cells and extracts the contact can be indirect. A yes stands for co-enrichment or nearness to the bait. Other partners may have been found. No binding means not detected with the bait.

For the assay, the target named is PafATAP (carboxyl-terminally epitope-tagged proteasome accessory factor A) (Mycobacterium tuberculosis) (UniProt P9WNU7). As to the kind of experiment: affinity purification with mass spectrometry.

B1: CoaXMtb, untagged, recombinant (cryo-EM sample) (natural protein)
chain: MLLAIDVRNTHTVVGLLSGMKEHAKVVQQWRIRTESEVTADELALTIDGLIGEDSERLTGTAALSTVPSVLHEVRIMLDQYWPSVPHVLIEPGVRTGIPLLVDNPKEVGADRIVNCLAAYDRFRKAAIVVDFGSSICVDVVSAKGEFLGGAIAPGVQVSSDAAAARSAALRRVELARPRSVVGKNTVECMQAGAVFGFAGLVDGLVGRIREDVSGFSVDHDVAIVATGHTAPLLLPELHTVDHYDQHLTLQGLRLVFERNLEVQRGRLKTAR
As for B1, the binding result was “no binding”.
